According to the supplement of paper PMC12819154, “High-throughput peptide-centric local stability assay extends protein–ligand identification to membrane proteins, tissues and bacteria” (Nature Structural & Molecular Biology, 2025):
Some of the results follow. Small differences around the control level are noise.

Sequences of proteins named here, by UniProt entry; tags and fusion partners are left off. A change or cut given only in a name is not applied to a line headed by its entry.
UniProt P01027, whole entry: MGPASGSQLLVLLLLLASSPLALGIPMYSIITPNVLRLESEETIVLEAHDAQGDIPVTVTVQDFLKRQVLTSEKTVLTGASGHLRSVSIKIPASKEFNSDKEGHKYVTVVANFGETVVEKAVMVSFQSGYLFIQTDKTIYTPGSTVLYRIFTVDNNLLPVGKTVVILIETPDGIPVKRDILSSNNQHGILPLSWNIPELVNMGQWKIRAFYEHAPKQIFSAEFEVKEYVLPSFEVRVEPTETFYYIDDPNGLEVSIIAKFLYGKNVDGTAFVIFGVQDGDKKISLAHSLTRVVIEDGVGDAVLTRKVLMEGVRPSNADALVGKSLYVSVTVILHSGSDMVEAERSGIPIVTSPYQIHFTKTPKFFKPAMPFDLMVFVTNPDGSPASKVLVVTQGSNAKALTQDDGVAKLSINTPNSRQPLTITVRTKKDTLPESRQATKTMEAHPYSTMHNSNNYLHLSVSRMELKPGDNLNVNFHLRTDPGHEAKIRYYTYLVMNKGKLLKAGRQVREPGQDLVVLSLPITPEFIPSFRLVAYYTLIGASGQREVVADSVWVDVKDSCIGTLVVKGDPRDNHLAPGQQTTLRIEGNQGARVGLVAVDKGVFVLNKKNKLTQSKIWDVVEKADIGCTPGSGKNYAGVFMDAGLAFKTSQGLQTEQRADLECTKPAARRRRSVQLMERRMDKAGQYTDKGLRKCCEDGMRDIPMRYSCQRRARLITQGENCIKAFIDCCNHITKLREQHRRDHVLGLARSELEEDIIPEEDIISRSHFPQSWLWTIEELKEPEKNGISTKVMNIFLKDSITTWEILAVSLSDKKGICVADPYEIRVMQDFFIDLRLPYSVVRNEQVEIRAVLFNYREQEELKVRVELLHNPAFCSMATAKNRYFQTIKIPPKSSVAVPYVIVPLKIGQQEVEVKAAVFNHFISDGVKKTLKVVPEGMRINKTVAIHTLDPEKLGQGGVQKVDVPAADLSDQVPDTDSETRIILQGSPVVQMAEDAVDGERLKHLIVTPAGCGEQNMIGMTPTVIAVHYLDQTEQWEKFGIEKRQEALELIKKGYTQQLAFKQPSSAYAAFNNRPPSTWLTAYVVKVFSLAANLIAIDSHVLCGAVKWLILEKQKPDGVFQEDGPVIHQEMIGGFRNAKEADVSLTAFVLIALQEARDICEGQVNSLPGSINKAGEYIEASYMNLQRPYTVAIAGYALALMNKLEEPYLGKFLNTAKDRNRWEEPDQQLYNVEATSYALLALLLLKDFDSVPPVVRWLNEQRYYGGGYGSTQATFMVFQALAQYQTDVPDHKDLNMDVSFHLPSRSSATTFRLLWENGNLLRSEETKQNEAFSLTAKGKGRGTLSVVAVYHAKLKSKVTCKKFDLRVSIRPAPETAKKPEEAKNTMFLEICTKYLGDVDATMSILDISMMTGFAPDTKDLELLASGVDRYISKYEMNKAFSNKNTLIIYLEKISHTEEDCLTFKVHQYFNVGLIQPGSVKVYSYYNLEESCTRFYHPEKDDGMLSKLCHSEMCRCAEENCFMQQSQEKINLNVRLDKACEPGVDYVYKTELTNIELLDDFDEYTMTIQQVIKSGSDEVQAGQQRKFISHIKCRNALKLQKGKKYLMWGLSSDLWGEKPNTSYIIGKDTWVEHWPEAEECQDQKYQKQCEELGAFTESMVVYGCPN
UniProt O35604: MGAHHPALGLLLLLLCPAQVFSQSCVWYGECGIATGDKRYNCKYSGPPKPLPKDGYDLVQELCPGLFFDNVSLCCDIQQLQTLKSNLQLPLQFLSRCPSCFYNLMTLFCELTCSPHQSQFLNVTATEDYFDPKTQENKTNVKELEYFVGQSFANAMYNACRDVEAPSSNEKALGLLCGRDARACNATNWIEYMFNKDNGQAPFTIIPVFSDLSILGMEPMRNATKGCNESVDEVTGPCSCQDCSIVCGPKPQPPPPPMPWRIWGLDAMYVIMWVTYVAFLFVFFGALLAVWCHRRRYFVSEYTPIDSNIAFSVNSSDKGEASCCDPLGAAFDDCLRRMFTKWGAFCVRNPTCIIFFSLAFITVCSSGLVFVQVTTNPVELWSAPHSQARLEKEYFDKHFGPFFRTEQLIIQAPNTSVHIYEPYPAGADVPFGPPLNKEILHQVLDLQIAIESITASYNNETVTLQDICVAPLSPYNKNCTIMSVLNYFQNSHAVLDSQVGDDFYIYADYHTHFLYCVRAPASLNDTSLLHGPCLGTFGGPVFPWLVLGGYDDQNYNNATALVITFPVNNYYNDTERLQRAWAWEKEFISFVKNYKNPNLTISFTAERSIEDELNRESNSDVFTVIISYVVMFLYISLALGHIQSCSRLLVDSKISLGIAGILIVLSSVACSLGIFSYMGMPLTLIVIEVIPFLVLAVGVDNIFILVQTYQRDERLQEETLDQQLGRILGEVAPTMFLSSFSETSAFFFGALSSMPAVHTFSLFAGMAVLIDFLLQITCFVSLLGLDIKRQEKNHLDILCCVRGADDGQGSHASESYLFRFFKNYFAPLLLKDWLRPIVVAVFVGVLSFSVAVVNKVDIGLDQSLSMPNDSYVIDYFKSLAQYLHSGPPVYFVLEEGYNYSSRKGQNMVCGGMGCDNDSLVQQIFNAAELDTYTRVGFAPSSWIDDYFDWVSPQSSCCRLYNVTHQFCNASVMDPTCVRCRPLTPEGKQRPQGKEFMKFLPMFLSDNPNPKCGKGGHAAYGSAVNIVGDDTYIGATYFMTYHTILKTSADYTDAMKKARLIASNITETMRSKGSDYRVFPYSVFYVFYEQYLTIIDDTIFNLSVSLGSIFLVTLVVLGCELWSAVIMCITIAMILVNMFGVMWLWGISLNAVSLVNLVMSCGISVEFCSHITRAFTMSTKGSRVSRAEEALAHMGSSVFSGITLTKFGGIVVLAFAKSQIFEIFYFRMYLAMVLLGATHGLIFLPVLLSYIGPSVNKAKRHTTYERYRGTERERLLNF
UniProt O88533: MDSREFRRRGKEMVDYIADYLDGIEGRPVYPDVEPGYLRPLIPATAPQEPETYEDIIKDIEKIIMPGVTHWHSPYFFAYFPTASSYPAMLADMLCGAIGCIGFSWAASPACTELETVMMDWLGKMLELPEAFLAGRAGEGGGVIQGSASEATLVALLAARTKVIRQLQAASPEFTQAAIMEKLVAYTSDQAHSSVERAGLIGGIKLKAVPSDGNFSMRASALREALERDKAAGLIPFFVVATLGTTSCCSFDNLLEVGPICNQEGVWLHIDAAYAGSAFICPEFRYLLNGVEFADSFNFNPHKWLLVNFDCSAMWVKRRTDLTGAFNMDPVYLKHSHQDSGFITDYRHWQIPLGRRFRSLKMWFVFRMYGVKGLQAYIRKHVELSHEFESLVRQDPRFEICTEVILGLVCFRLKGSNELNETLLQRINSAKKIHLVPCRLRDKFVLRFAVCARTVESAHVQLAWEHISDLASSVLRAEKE
UniProt O70311: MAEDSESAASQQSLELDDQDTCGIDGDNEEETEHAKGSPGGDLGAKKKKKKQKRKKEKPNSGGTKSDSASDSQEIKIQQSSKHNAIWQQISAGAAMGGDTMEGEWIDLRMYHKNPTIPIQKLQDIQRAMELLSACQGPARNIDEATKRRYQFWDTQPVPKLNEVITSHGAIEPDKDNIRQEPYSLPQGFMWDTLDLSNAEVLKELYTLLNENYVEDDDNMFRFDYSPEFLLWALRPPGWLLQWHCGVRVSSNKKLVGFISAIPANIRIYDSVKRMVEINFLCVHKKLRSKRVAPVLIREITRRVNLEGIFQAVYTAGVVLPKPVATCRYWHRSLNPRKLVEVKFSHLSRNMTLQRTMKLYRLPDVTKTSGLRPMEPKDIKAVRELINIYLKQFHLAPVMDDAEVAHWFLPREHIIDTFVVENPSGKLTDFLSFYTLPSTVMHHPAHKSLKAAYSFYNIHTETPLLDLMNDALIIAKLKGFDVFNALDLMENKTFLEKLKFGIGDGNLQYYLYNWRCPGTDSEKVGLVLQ
UniProt P01631, whole entry: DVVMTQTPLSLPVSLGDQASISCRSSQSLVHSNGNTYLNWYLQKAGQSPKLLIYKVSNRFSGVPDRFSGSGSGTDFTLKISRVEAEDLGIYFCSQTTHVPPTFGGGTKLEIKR
UniProt O88968: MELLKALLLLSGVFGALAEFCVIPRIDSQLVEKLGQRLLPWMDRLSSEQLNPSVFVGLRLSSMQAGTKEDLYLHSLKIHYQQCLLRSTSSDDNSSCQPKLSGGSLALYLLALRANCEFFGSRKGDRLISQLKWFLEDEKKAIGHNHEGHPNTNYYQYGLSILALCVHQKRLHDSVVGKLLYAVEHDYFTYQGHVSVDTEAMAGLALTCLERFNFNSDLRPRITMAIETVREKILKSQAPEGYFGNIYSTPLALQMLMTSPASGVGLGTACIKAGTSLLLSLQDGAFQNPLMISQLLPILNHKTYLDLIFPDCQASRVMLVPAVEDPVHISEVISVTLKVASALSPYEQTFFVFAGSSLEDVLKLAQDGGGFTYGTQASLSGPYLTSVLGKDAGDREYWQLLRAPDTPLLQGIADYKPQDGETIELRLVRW
UniProt O08788, whole entry: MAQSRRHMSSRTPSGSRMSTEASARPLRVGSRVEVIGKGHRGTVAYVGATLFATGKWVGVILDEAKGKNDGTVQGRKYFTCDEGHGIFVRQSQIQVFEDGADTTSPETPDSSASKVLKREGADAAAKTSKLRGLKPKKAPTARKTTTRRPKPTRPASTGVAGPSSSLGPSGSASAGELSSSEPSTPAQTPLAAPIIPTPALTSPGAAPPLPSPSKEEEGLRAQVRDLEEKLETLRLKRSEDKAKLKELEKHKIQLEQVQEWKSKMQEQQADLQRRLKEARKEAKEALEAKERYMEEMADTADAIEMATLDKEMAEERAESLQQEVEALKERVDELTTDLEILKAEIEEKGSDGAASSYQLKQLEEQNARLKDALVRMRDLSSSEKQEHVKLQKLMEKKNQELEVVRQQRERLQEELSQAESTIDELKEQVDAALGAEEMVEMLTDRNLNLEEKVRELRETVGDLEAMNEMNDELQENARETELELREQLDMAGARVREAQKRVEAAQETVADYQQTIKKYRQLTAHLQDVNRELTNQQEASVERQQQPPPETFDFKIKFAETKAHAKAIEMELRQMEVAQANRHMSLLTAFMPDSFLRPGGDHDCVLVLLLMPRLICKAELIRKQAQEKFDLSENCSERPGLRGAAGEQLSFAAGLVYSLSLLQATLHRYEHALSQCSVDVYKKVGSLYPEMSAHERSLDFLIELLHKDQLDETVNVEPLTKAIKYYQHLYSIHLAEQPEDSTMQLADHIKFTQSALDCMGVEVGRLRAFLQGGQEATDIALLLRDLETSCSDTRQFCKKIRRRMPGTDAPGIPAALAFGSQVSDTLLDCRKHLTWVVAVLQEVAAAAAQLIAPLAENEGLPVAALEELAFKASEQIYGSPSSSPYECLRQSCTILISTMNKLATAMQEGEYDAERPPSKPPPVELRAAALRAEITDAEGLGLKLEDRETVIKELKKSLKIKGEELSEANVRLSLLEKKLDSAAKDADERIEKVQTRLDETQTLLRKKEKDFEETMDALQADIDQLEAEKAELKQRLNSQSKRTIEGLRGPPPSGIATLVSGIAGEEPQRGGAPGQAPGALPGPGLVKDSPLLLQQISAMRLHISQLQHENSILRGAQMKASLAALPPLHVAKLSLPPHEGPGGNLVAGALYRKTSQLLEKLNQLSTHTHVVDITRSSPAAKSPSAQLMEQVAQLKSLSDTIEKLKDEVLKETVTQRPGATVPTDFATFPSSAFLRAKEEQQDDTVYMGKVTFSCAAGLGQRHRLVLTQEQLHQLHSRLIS
UniProt O55101: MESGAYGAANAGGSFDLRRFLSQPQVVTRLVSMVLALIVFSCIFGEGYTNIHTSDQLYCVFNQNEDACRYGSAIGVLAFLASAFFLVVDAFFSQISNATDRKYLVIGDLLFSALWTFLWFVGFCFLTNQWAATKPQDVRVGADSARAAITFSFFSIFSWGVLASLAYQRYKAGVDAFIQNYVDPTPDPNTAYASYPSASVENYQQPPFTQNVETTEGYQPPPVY
UniProt O88829: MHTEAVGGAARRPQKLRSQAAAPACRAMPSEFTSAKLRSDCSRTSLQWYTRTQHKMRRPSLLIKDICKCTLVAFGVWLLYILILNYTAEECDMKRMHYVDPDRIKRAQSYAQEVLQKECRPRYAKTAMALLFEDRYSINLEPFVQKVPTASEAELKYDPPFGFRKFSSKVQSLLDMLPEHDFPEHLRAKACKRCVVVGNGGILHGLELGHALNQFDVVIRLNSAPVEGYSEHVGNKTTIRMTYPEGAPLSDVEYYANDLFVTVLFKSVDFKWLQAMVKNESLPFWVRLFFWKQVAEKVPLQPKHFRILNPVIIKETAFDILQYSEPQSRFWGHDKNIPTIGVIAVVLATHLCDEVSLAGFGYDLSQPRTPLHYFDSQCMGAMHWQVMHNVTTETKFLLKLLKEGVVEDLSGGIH
UniProt O89086: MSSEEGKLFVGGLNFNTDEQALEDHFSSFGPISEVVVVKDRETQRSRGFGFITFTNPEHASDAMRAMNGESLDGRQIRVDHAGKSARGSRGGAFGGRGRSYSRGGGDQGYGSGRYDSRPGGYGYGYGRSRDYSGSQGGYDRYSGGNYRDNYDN

Each target was assayed with CN[C@@H]1C[C@H]2O[C@@](C)([C@@H]1OC)n1c3ccccc3c3c4c(c5c6ccccc6n2c5c31)C(=O)NC4 [staurosporine] (assay: log2 fold change of pooled soluble protein (PISA), ligand vs vehicle (log2 ratio); higher = more thermally stabilized). Conditions: ligand concentration: 20 uM; assay format: PISA pool 52.9/55.5/58.6 C.

Target | log2 fold change of pooled soluble protein
UniProt G5E8V9 | 0.0953
UniProt P01027 | -0.0264
UniProt O09159 | -0.112
UniProt O70152 | -0.132
UniProt O08808 | 0.0218
UniProt O70570 | 0.000156
UniProt O54865 | -0.00118
UniProt O35286 | -0.00883
UniProt O35604 | 0.0432
UniProt O88696 | -0.217
UniProt O88935 | -0.0267
UniProt O70362 | 0.0641
UniProt O08738 | -0.151
UniProt O70456 | 0.0719
UniProt O88533 | -0.554
UniProt O35295 | 0.133
UniProt O70311 | -0.031
UniProt O55135 | -0.0651
P01868;P01869 | -0.377

Taken from above:
log2 fold change of pooled soluble protein, UniProt O35286 reads -0.00883
log2 fold change of pooled soluble protein, UniProt O88533 reads -0.554
log2 fold change of pooled soluble protein, UniProt O54865 reads -0.00118

The list continues:

Target | log2 fold change of pooled soluble protein
UniProt O70303 | 0.2
UniProt O54879 | 0.0712
UniProt P01631 | -0.21
UniProt O88968 | -0.0775
UniProt O08788 | -0.0466
UniProt O35566 | -0.188
UniProt O09061 | -0.00364
UniProt O55101 | -0.041
UniProt O70251 | -0.0859
UniProt O88986 | -0.055
UniProt O88829 | -0.000194
UniProt O89086 | -0.0408
UniProt O88983 | -0.0463
UniProt O70325 | -0.0521
UniProt O55013 | -0.00856
UniProt P01786 | 0.0707
UniProt O35711 | 0.0648
UniProt O54824 | 0.00307
